Experimental findings from patent US20210324061A1 (ARGENX BVBA, published 2021) are described below.

Protein sequences, listed by entry. Tags and fused reporters are not part of them. Lines headed by an entry give the natural chain unless they say otherwise; changes in a name come on top.
UniProt Q14392: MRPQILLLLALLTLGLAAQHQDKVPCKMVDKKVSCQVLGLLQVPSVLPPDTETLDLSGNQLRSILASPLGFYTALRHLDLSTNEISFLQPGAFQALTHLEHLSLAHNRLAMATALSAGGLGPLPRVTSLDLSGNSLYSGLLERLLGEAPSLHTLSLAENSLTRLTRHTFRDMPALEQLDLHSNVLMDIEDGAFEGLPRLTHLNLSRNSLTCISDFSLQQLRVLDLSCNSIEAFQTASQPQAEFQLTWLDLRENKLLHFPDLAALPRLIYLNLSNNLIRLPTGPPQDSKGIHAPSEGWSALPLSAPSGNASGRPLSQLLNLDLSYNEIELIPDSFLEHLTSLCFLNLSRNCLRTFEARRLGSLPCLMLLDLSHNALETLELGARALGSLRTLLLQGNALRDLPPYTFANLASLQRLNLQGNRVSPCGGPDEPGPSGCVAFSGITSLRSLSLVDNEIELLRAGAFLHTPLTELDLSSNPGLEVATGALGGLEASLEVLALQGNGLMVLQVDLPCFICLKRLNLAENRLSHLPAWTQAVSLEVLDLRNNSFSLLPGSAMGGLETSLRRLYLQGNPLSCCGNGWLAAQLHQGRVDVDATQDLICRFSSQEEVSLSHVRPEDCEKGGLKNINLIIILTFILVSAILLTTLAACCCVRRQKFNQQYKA

Substitutions are numbered along the chain they refer to. In names and notes the source's numbering stands. No constants are given. Whether binding was seen depends on the method and setting. Some binding calls cover weakened binding; strength is not graded here.

For assay [1], the target named is human GARP-TGF-β1 complex (recombinant complex of human GARP and latent human TGF-β1) (human) (UniProt Q14392). The experiment in a line: SPR, IgG1 on human GARP-TGF-β1 complex.
Assay [2] has the same target. Nature of the assay: SPR relative binding activity of samples stored at 37°C, % of the reference.
The target is the same in assay [3]. The experiment in a line: SPR (Biacore) target binding activity on the GARP-TGF-β complex, % of the -20°C reference, storage in PBS or PBSTw.
Assay [4] has as its target in vitro-formed complex of recombinant human GARP and recombinant latent TGF-β (C33S) (human) (UniProt Q14392). The experiment in a line: ELISA (legend of FIG. 19).
The target of assay [5] is human GARP-TGF-β1 complex (recombinant complex of human GARP and latent human TGF-β1) (human) (UniProt Q14392). The experiment in a line: conclusion of Example 2 (SPR).
Assay [6] has as its target in vitro-formed complex of recombinant human GARP and recombinant latent TGF-β (C33S) (human) (UniProt Q14392). The experiment in a line: ELISA: ARGX-115 coated, GARP then latent TGF-β (C33S)-3×strep-tag added, streptavidin-HRP.
Assay [7] shares this target. The experiment in a line: ELISA: GARP coated, latent TGF-β (C33S) captured, antibody at 1 µg/mL detected with HRP anti-human IgG.
For assay [8], the target named is human GARP-TGF-β1 complex (recombinant complex of human GARP and latent human TGF-β1) (human) (UniProt Q14392). Nature of the assay: SPR (Biacore) target binding activity on coated human GARP-TGF-β complex after 96 h of rotation, % of the reference.
Assay [9] shares this target. The experiment in a line: SPR (Biacore) target binding activity on coated human GARP-TGF-β complex after 1 h of heating, % of the 5°C reference.
For assay [10] the target is unchanged. The experiment in a line: SPR (Biacore) target binding activity on coated human GARP-TGF-β complex after 10 freeze-thaw cycles, % of the reference.
The target in assay [11] is in vitro-formed complex of recombinant human GARP and recombinant latent TGF-β (C33S) (human) (UniProt Q14392). The experiment in a line: ELISA in two orientations: GARP coated, latent TGF-β (C33S) captured, antibody detected with anti-human IgG-HRP; or antibody coated, GARP then latent TGF-β (C33S)-3xstrep-tag added, detected with streptavidin-HRP.

B1: 39A5 human IgG1 (antibody, V domains shown)
VH: QVQLVQPGAELRNPGASVKVSCKASGYRFTSYYIDWVRQAPGQGLEWMGRIDPEDGGTKYAQKFQGRVTFTRDTSTSTVYMELSSLRSEDTAVYYCARNEWETVVVGDLMYEYEYWGQGTLVT
VL: DIQMTQSPSSLSASLGDRVTITCQASQSISSYLAWYQQKPGQAPKLLIYGASRLKTGVPSRFSGSGSGTDFTLTISSLQPEDAATYYCQQYASVPVTFGQGTKVEIK
notes: Full human IgG1, made in HEK 293E cells
Consider B1, for which the binding entry in [1] was “binds”.

B2: 39B6-A IgG4 S228P (antibody, V domains shown)
VH: QVQLVQPGAEVRKPGASVKVSCKASGYRFTSYYIDWVRQAPGQGLEWMGRIDPEDAGTKYAQKFQGRVTMTADTSTSTVYVELSSLRSEDTAVYYCARNEWETVVVGDLMYEYEYWGQGTLVTVSS
VL: DIQMTQSPSSLSASVGDRVTITCQASQSISSYLAWYQQKPGQAPKILIYGASRLKTGVPSRFSGSGSGTSFTLTISSLEPEDAATYYCQQYASVPVTFGQGTKVEIKR
notes: 39B6 with G55A in HCDR2, in the human IgG4 S228P backbone; also called 39B6-ANE
For B2, the binding result in assay [2] is recorded as “binds”.

B3: 39B6 human IgG1 (antibody, V domains shown)
VH: B2 VH with A56G
VL: B1 VL with L15V, L46I, D70S, Q79E
notes: as for B1
Consider B3, for which, in assay [1], the binding entry is “binds”.

B4: 39B10 human IgG1 (antibody, V domains shown)
VH: B2 VH with Q1E, P7S, V11L, R12K, D55E, A56G, V79A, V81M
VL: B1 VL with K45N, L46I, S77G, Q79E, P80A, A83F
notes: as for B1
In the case of B4, the binding entry in [1] is recorded as “binds”.

B5: 39B6 IgG1-N297Q (antibody, V domains shown)
VH: B2 VH with A56G
VL: B1 VL with L15V, L46I, D70S, Q79E
notes: Effector-deficient format hIgG1 N297Q; The second row may be the IgG4 S228P form; Both rows are written here as printed
Take B5: the binding result in [3] was “binds”.

B6: 38F2 human IgG1 (antibody, V domains shown)
VH: B2 VH with V11L, R12K, M70F, M110T
VL: DIQMTQSPSSLSASVGDRVTITCQASQSISSYLAWYQQKPGKAPNLLIYGASRLKTEVPSRFSGSGSGTDFTLISGLEPEDAGTYYCQQYASVPVTFGQGTKVEIK
notes: as for B1
For the molecule B6, the binding entry in assay [1] is “binds”.

B7: 39B6-AYE (ARGX-115), IgG4 S228P (antibody, V domains shown)
VH: B2 VH with N99Y
VL: B2 VL
Consider B7, for which the binding entry in assay [4], in assay [5], in assay [2], in assay [6], in assay [7] and in assay [8] was “binds” in each case. Also, the binding entry in assay [9], in assay [10] and in assay [11] was “binds” in each case.

B8: 39B6-ANK IgG4 S228P (antibody, V domains shown)
VH: B2 VH with E100K
VL: B2 VL
notes: Variant of 39B6-A in IgG4 S228P format; Positions are Kabat-type
B8: the binding result in assay [2] and in assay [9] was “binds” each time.

B9: 39B6-ANR IgG4 S228P (antibody, V domains shown)
VH: B2 VH with E100R
VL: B2 VL
notes: as for B8
Regarding B9, the binding entry in [2] and in [9] was “binds” each time.

B10: 39A12 human IgG1 (antibody, V domains shown)
VH: B2 VH with Q1E, R12K, D55E, A56G, M70F, M110T
VL: B1 VL with L15V, L46I, P80A, A83F
notes: Full human IgG1, made in HEK 293E cells; also called 39A12_T
Turning to B10, the binding result in assay [1] is on record as “binds”.

B11: 39B6-AVE IgG4 S228P (antibody, V domains shown)
VH: B2 VH with N99V
VL: B2 VL
notes: as for B8
In the case of B11, the binding entry in [2], in [8], in [9] and in assay [10] was “binds” in each case.
